Earlier results as cited in patent publication US20210299202A1, “FORMULATION OF C[…]” (CARDINAL ADVISORY LIMITED, priority 2018, published 2021).

What was measured:
[1] = inhalation of marijuana smoke
[2] = oral administration, after extensive liver metabolism

CCCCCc1cc(O)c2c(c1)OC(C)(C)[C@@H]1CCC(C)=C[C@@H]21 [THC, delta-9-tetrahydrocannabinol]
systemic bioavailability [1]: 10-35%
oral bioavailability [2]: 2-14%
